Test results as given in US20040013664A1.
No constants are given. Whether binding was seen depends on the method and setting. Some binding calls cover weakened binding; strength is not graded here. Where a sequence is shown, tags or fusion partners need not be part of it.

Chains of the proteins cited; added tags and fusions are not shown. Lines headed by an entry give the natural chain unless they say otherwise; changes in a name come on top. A line that says so, or that is headed by a name, gives the form on record, which may keep a tag or linker. Residues count along the entry.
UniProt O43557: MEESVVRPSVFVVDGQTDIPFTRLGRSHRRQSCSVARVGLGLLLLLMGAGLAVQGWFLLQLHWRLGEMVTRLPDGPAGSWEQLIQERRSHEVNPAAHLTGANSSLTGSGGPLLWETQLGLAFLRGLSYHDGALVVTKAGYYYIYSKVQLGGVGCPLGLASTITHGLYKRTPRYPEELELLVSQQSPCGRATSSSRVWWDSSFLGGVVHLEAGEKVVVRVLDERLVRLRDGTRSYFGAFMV
Flag-tagged soluble AIM-II: residues 74-240 of O43557
UniProt P48023, residues 103-281: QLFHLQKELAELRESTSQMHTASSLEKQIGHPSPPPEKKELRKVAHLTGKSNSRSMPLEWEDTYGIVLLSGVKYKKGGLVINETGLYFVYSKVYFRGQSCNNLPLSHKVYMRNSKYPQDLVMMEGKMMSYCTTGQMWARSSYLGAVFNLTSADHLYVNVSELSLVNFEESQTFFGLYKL

Legend:
[1] = target: Flag-tagged soluble AIM-II (UniProt O43557); assay: summary of Example 7 (immunoprecipitation, flow cytometry)
[2] = target: Flag-tagged soluble AIM-II (UniProt O43557); assay: immunoprecipitation with anti-Flag agarose, western blot with anti-poly(His)6
[3] = target: FasL-Flag (Flag-tagged soluble FasL of Example 7) (UniProt P48023); assay: as above
[4] = target: Flag-tagged soluble AIM-II (UniProt O43557); assay: immunoprecipitation in the presence of HVEM/TR2-Fc
[5] = target: AIM-II expressed on HEK 293 EBNA cells (UniProt O43557); assay: flow cytometry on AIM-II-transfected HEK 293 EBNA cells
[6] = target: FasL-Flag (Flag-tagged soluble FasL of Example 7) (UniProt P48023); assay: summary of Example 7 (immunoprecipitation)

Measured: binding

B1: TNFR-6 alpha-(His) (receptor)
chain: VAETPTYPWRDAETGERLVCAQCPPGTFVQRPCRRDSPTTCGPCPPRHYTQFWNYLERCRYCNVLCGEREEEARACHATHNRACRCRTGFFAHAGFCLEHASCPPGAGVIAPGTPSQNTQCQPCPPGTFSASSSSSEQCQPHRNCTALGLALNVPGSSSHDTLCTSCTGFPLSTRVPGAEECERAVIDFVAFQDISIKRLQRLLQALEAPEGWGPTPRAGRAALQLKLRRRLTELLGAQDGALLVRLLQALRVARMPGLERSVRERFLPVHHHHHH
binds: all assays above
